Laboratory results published in paper PMC5451165.
Results are given in words; binding and its absence hold for the method and conditions named. Binding seen in cells or lysates may run through a third protein. Some binding calls cover weakened binding; strength is not graded here.

By UniProt entry, the sequences of proteins in these tests, tags left out.
UniProt P62993: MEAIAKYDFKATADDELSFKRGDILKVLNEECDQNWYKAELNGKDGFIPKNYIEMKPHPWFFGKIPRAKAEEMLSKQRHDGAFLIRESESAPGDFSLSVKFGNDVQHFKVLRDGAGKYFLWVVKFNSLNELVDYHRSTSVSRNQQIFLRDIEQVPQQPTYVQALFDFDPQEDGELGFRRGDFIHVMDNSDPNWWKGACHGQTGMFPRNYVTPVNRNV

Target: Growth factor receptor bound protein 2 (Grb2), endogenous in SHSY-5Y cells (human (endogenous in SHSY-5Y)) (UniProt P62993)
Assay: co-IP; IP for Grb2 from cell lysate, blot with anti-NOX4 (reverse: IP for NOX4, blot with anti-Grb2); cells under control (GFP, DMSO, DsRed), AD-inducing (AICD, Aβ, DsRed), reversal (AICD, Aβ, Grb2-DsRed) and Grb2 knock-down (U6-Grb2) conditions

B1: NOX4, endogenous in SHSY-5Y cells (protein, UniProt Q9NPH5 1-578)
chain: MAVSWRSWLANEGVKHLCLFIWLSMNVLLFWKTFLLYNQGPEYHYLHQMLGLGLCLSRASASVLNLNCSLILLPMCRTLLAYLRGSQKVPSRRTRRLLDKSRTFHITCGVTICIFSGVHVAAHLVNALNFSVNYSEDFVELNAARYRDEDPRKLLFTTVPGLTGVCMVVVLFLMITASTYAIRVSNYDIFWYTHNLFFVFYMLLTLHVSGGLLKYQTNLDTHPPGCISLNRTSSQNISLPEYFSEHFHEPFPEGFSKPAEFTQHKFVKICMEEPRFQANFPQTWLWISGPLCLYCAERLYRYIRSNKPVTIISVMSHPSDVMEIRMVKENFKARPGQYITLHCPSVSALENHPFTLTMCPTETKATFGVHLKIVGDWTERFRDLLLPPSSQDSEILPFIQSRNYPKLYIDGPFGSPFEESLNYEVSLCVAGGIGVTPFASILNTLLDDWKPYKLRRLYFIWVCRDIQSFRWFADLLCMLHNKFWQENRPDYVNIQLYLSQTDGIQKIIGEKYHALNSRLFIGRPRWKLLFDEIAKYNRGKTVGVFCCGPNSLSKTLHKLSNQNNSYGTRFEYNKESFS
- binding: binds
